These are yes or no findings as the source states them, for the method shown. Binding seen in cells or lysates may run through a third protein. Some results given as binding are weak or reduced against the parent protein; the word gives no strength.
What was measured:
[1] = target: Flag-tagged Beclin-1 (human) (UniProt Q14457); test: co-IP; HepaRG cells (or shScram/shST2 cells) co-transfected with tagged plasmids for 24 h, with or without Myc-ST2, rhIL-33 (100 ng/mL), APAP (10 mmol/L, 12 h) or 3-MA (10 mM, 12 h); RIPA lysis; 1 ug primary antibody (anti-Flag, anti-HA or anti-Myc) overnight at 4 °C, Protein G sepharose 4 h; immunoblot
[2] = target: STING, endogenous (human (endogenous in HepaRG or Huh7 ST2-OE/vector cells)) (UniProt Q86WV6); test: co-IP; lysates of ST2-OE and vector cells immunoprecipitated with STING antibody, blotted for Beclin-1; endogenous proteins

Protein sequences, listed by entry. Tags and fused reporters are not part of them. Lines headed by an entry give the natural chain unless they say otherwise; changes in a name come on top.
UniProt Q14457: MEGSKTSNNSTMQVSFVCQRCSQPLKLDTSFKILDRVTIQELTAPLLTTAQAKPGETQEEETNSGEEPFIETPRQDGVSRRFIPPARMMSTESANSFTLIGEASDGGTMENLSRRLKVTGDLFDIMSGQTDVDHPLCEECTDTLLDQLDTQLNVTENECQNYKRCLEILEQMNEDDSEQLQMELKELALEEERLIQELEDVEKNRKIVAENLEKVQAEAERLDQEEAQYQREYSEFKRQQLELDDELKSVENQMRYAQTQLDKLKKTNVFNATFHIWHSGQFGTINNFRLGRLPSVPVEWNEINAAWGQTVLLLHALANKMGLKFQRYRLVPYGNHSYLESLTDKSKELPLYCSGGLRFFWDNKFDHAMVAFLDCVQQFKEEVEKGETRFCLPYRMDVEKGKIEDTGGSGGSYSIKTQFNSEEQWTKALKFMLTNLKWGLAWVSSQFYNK
UniProt Q86WV6: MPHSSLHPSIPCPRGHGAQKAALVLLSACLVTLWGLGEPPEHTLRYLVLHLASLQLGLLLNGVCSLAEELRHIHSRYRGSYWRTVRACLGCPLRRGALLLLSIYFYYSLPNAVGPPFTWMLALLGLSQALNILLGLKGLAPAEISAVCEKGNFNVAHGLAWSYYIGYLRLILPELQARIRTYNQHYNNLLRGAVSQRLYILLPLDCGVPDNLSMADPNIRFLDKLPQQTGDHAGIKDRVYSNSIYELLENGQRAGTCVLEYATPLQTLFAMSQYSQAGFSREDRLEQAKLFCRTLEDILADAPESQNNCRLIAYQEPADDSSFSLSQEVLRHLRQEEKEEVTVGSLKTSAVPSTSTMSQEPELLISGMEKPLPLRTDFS

binding [1]	binding [2]	Substance
binds	–	HA-STING^191-379 (C-terminal truncation mutant of STING) (from UniProt Q86WV6 191-379) (domain or fragment)
no binding	–	HA-STING^1-190 (N-terminal truncation mutant of STING) (from UniProt Q86WV6 1-190) (domain or fragment)
–	binds	Beclin-1, endogenous (from UniProt Q14457 1-450)
binds	–	HA-tagged STING (stimulator of interferon response cGAMP interactor 1) (from UniProt Q86WV6 1-379)

Reference: article PMC10116723
